From PubChem BioAssay (NCATS)
Several values for one entry are separate records, joined by “and”; a condition that tells them apart may be missing. Identical values can stand only once. The shares of active, inactive and inconclusive entries below differ from those in the screen. Potencies of inconclusive entries are doubtful fits and often do not repeat. Activity calls are given as the source filed them. The call rests on the fitted dose curve; in most records, active means well fitted curve in the direction sought with a large enough effect; inconclusive means small, poorly fitted or top-dose-only effect, or another doubt; inactive means no such curve, though single readings can be large; an effect the other way counts as inactive or inconclusive.

Columns and labels:
[1] = Quantitative highthroughput screen to assess conditional lethalithy of NOMO1 cells grown in RPMI1640 with untreated serum (RPMI+s) (AID 1963876); conditions: NOMO1 AML cells in RPMI+serum, CellTiter-Glo viability, 48 h; viability: at 45.8 µM (top of the series); further: nearly all actives have a fitted effect of over 35% in size
Procedure, shortened: (§1)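 Each medium arm—HPLM with 10% dialyzed FBS, or RPMI1640 with 5 mM glucose and 10% untreated or dialyzed FBS—was screened against an 11-point, 3-fold compound titration for 48 h at 37 °C, with CellTiter-Glo luminescence as endpoint.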

[2] = Quantitative highthroughput screen to assess conditional lethalithy of NOMO1 cells grown in RPMI1640 with dialyzed fetal bovine serum (RPMI+ds) (AID 1963877); further: nearly all actives have a fitted effect of over 30% in size
Procedure, shortened: as §1

[3] = Quantitative highthroughput screen to assess conditional lethalithy of NOMO1 cells grown in Human Plasma-Like Medium with dialyzed fetal bovine serum (HPLM+ds) (AID 1963878); conditions: NOMO1 AML cells in HPLM+ds, CellTiter-Glo viability, 48 h; viability: at 45.8 µM (top of the series); further: nearly all actives have a fitted effect of over 35% in size
Procedure, shortened: as §1

[4] = Quantitative highthroughput screen to assess conditional lethalithy of P12 Ichikawa cells grown in Human Plasma-Like Medium with dialyzed fetal bovine serum (HPLM+ds) (AID 1963879); conditions: Potency: viability; further: nearly all actives have a fitted effect of over 35% in size
Procedure, shortened: as §1

[5] = Quantitative highthroughput screen to assess conditional lethalithy of P12 Ichikawa cells grown in RPMI1640 with dialyzed fetal bovine serum (RPMI+ds) (AID 1963880); conditions: Potency: P12-Ichikawa viability; further: nearly all actives have a fitted effect of over 35% in size
Procedure, shortened: as §1

[6] = Quantitative highthroughput screen to assess conditional lethalithy of P12 Ichikawa cells grown in RPMI1640 with untreated serum (RPMI+s) (AID 1963881); conditions: Potency: viability; further: nearly all actives have a fitted effect of over 35% in size
Procedure, shortened: as §1

[7] = Quantitative highthroughput screen to assess conditional lethalithy of SEM cells grown in RPMI1640 with unreated serum (RPMI+s) (AID 1963883); conditions: SEM B-ALL cells, CellTiter-Glo viability, 48 h; viability: at 45.8 µM (top of the series); further: nearly all actives have a fitted effect of over 35% in size
Procedure, shortened: as §1

[8] = Quantitative highthroughput screen to assess conditional lethalithy of SEM cells grown in RPMI1640 with dialyzed fetal bovine serum (RPMI+ds) (AID 1963884); conditions: SEM B-ALL cells, RPMI+dialyzed FBS, CellTiter-Glo viability, 48 h; viability: at 45.8 µM (top of the series); further: nearly all actives have a fitted effect of over 35% in size
Procedure, shortened: as §1

[9] = Viability qHTS for spleen associated tyrosine kinase inhibitor (SYKi) drug resistant MV4-11 cells (AID 1963824); further: nearly all actives have a fitted effect of over 35% in size
Procedure, shortened: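 SYK-inhibitor-resistant MV4-11 AML cells were seeded at 500 per well onto compound and cultured 72 hours (37 °C, 5% CO2). CellTiter-Glo was then added, and after 10 min at room temperature, luminescence gave viability.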

[10] = Cellular viability qHTS for adrenocortical cancer (ACC) cell line NCI-H295R (AID 1963990); conditions: CellTiter-Glo ATP luminescence, 48 h; activity change, negative = viability loss: at 46.1 µM (top of the series); further: nearly all actives have a fitted effect of over 60% in size;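 on activity change, negative = viability loss: 0% = DMSO only wells and -100% = full killing with cytotoxic reference compound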
Procedure, shortened: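 Readout: CellTiter-Glo luminescence, 20 min RT. Exposure: 48 h, 37C/5% CO2. Cells: NCI-H295R, ITS-DMEM serum-free. Range: up to 46 uM. Analysis: 4PL fit, IC50 plus efficacy.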

[11] = Quantitative highthroughput screen to assess conditional lethalithy of SEM cells grown in Human Plasma-Like Medium with dialyzed fetal bovine serum (HPLM+ds) (AID 1963882); further: nearly all actives have a fitted effect of over 35% in size
Procedure, shortened: as §1

[12] = Cellular viability qHTS for adrenocortical cancer (ACC) cell line SW-13 (AID 1963989); conditions: SW-13 ACC cells viability, CellTiter-Glo, 48 h; activity (max response): stronger effect = lower value; further: nearly all actives have a fitted effect of over 65% in size;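 on activity (max response): cells grown in serum-free medium with ITS supplement; on the % scale 0 is the no-effect control and ±100 the full control effect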
Procedure, shortened: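 Compound titrations (up to 46 uM final, in DMSO) were applied to SW-13 cells for 48 h at 37C/5% CO2. Reading used CellTiter-Glo after 20 min at room temperature; fitted curves yielded IC50 and efficacy.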
Potency means the concentration at half of the fitted maximal effect.

In the case of `COc1cc2nc(-c3cc(F)ccc3O)nc(N[C@@H]3CNC[C@@H]3C(C)(C)O)c2cc1OC`, the Potency [1] is reported as inconclusive: 33.2 µM [cytotoxic, single point], the Potency [2] is reported as inconclusive: 20.9 µM [cytotoxic, partial curve] and the Potency [3] is reported as inconclusive: 20.9 µM [cytotoxic, partial curve]. The Potency [4] was inconclusive: 10.5 µM [cytotoxic, partial curve], the Potency [5] was inconclusive: 4.18 µM [cytotoxic, full curve] and the Potency [6] was inconclusive: 8.33 µM [cytotoxic, partial curve]. For the same compound, the Potency [7] was active: 0.469 µM and the Potency [8] was inconclusive: 0.105 µM [cytotoxic, full curve, poor fit].
With `CO[C@H]1C[C@@H]2CC[C@@H](C)[C@@](O)(O2)C(=O)C(=O)N2CCCC[C@@H]2C(=O)O[C@H]([C@H](C)C[C@@H]2CC[C@H](OCCO)[C@H](OC)C2)CC(=O)[C@H](C)C=C(C)[C@@H](O)[C@@H](OC)C(=O)[C@H](C)C[C@H](C)C=CC=CC=C1C` the Potency [1] was inconclusive: 6.62 µM [cytotoxic, full curve, poor fit], the Potency [2] was inconclusive: 4.69 µM [cytotoxic, partial curve] and the Potency [3] was inconclusive: 1.87 µM [cytotoxic, partial curve]. For the same compound, the Potency [4] was inconclusive: 5.26 µM [cytotoxic, full curve], the Potency [5] was inconclusive: 4.18 µM [cytotoxic, full curve] and the Potency [6] was inconclusive: 5.26 µM [cytotoxic, full curve]. For the same compound, the Potency [7] was inconclusive: 0.662 µM [cytotoxic, full curve] and the Potency [8] was inconclusive: 1.18 µM [cytotoxic, full curve].
For `C=CC(=O)Nc1cccc(Nc2nc(Nc3ccc(N4CCN(C(C)=O)CC4)cc3OC)ncc2C(F)(F)F)c1`, the Potency [9] was active: 1.84 µM and active: 1.86 µM and the Potency [10] was active: 3.55 µM.
In the case of `CCCCC[C@H](O)C=C[C@H]1[C@H](O)CC(=O)[C@H]1CCCCCCC(=O)O`, the Potency [1] is reported as inconclusive: 37.2 µM [cytotoxic, single point], the Potency [2] is reported as inconclusive: 33.2 µM [cytotoxic, single point] and the Potency [3] is reported as inconclusive: 33.2 µM [cytotoxic, single point]. For the same compound, the Potency [4] was inconclusive: 37.2 µM [cytotoxic, single point], the Potency [5] was inconclusive: 29.6 µM [cytotoxic, single point] and the Potency [6] was inconclusive: 26.4 µM [cytotoxic, single point]. The Potency [11] was inconclusive: 2.64 µM [cytotoxic, full curve], the Potency [7] was active: 4.18 µM and the Potency [8] was inconclusive: 3.72 µM [cytotoxic, full curve].
With `NC(=O)N/N=C/c1ccc([N+](=O)[O-])o1` the Potency [9] was active: 21.7 µM and inconclusive: 18.8 µM [cytotoxic, single point] and the Potency [10] was inconclusive: 29.1 µM [cytotoxic, partial curve, poor fit].
With `O=C(O)[C@@H](O)[C@H](O)[C@H](O)[C@@H](O)C(=O)O` the Potency [9] was “inactive” and the Potency [10] was inconclusive: 32.6 µM [cytotoxic, single point].
For `CCC(=O)N1CCN(c2ccc(-n3c(=O)ccc4cnc5ccc(-c6cnc7ccccc7c6)cc5c43)cc2C(F)(F)F)CC1`, the Potency [1] was active: 0.132 µM, the Potency [2] was inconclusive: 0.332 µM [cytotoxic, full curve] and the Potency [3] was inconclusive: 0.0526 µM [cytotoxic, full curve, poor fit]. For the same compound, the Potency [4] was inconclusive: 0.118 µM [cytotoxic, full curve, poor fit], the Potency [5] was inconclusive: 0.0935 µM [cytotoxic, full curve] and the Potency [6] was inconclusive: 0.0296 µM [cytotoxic, full curve]. For the same compound, the Potency [11] was inconclusive: 0.235 µM [cytotoxic, full curve], the Potency [7] was inconclusive: 0.0296 µM [cytotoxic, full curve] and the Potency [8] was inconclusive: 0.105 µM [cytotoxic, full curve]. For the same compound, the Potency [12] was inconclusive: 0.0715 µM [cytotoxic, full curve] and the Potency [10] was inconclusive: 0.143 µM [cytotoxic, full curve].
In the case of `O=C(Nc1ccc(OC(F)(F)F)cc1)c1sccc1NCc1ccnc2ccccc12`, the Potency [1] is reported as inconclusive: 4.18 µM [cytotoxic, full curve], the Potency [2] is reported as inconclusive: 3.72 µM [cytotoxic, full curve] and the Potency [3] is reported as inconclusive: 0.662 µM [cytotoxic, full curve]. The Potency [4] was active: 0.469 µM, the Potency [5] was active: 2.35 µM and the Potency [6] was active: 2.35 µM. The Potency [11] was active: 2.96 µM, the Potency [7] was active: 2.96 µM and the Potency [8] was active: 7.43 µM. For the same compound, the activity (max response) [12] was inactive: -29.8% and the Potency [10] was inconclusive: 12.6 µM [cytotoxic, partial curve, poor fit].
With `COC(=O)[C@]12CCC(C)(C)C[C@@H]1[C@@H]1C(=O)C=C3[C@@]4(C)C=C(C#N)C(=O)C(C)(C)[C@@H]4CC[C@@]3(C)[C@]1(C)CC2` the Potency [1] was active: 9.35 µM, the Potency [2] was active: 8.33 µM and the Potency [3] was active: 9.35 µM. The Potency [4] was active: 9.35 µM and the Potency [5] was active: 8.33 µM.
In the case of `CN(C)C(=S)SC(=S)N(C)C`, the Potency [9] is reported as active: 1.68 µM and the Potency [10] is reported as active: 2.31 µM.
With `CC1C(=O)OC2C(O)C34C5CC(C(C)(C)C)C36C(OC(=O)C6O)OC4(C(=O)O5)C12O` (centres undefined) the Potency [1] was inconclusive: 37.2 µM [cytotoxic, single point], the Potency [2] was inconclusive: 37.2 µM [cytotoxic, single point] and the Potency [3] was inconclusive: 26.4 µM [cytotoxic, single point]. For the same compound, the Potency [4] was inconclusive: 33.2 µM [cytotoxic, single point], the Potency [5] was inconclusive: 33.2 µM [cytotoxic, single point] and the Potency [6] was inconclusive: 29.6 µM [cytotoxic, single point]. The Potency [11] was inconclusive: 29.6 µM [cytotoxic, single point] and the Potency [7] was inconclusive: 18.7 µM [cytotoxic, partial curve, poor fit].
For `CCCCOCCOCCOCc1cc2c(cc1CCC)OCO2`, the Potency [9] was inconclusive: 24.6 µM [cytotoxic, partial curve] and inconclusive: 2.66 µM [cytotoxic, partial curve, poor fit] and the Potency [10] was inconclusive: 35.5 µM [cytotoxic, single point] and inactive.
In the case of `CCCNC(=O)[C@H]1O[C@H]1C(=O)N[C@H](C(=O)N1CCC[C@@H]1C(=O)OC)C(C)CC` (some centres undefined), the Potency [1] is reported as active: 13.2 µM, the Potency [2] is reported as inconclusive: 16.6 µM [cytotoxic, partial curve] and the Potency [3] is reported as inconclusive: 29.6 µM [cytotoxic, partial curve]. For the same compound, the Potency [4] was inconclusive: 20.9 µM [cytotoxic, partial curve], the Potency [5] was active: 16.6 µM and the Potency [6] was active: 16.6 µM. The Potency [8] was active: 16.6 µM.
With `CCc1cc(-c2n[nH]c(C)c2-c2ccc3c(c2)OCCO3)c(O)cc1O` the Potency [1] was active: 9.35 µM, the Potency [2] was inconclusive: 10.5 µM [cytotoxic, full curve] and the Potency [3] was active: 11.8 µM. For the same compound, the Potency [4] was inconclusive: 14.8 µM [cytotoxic, partial curve], the Potency [5] was inconclusive: 11.8 µM [cytotoxic, full curve] and the Potency [6] was inconclusive: 9.35 µM [cytotoxic, full curve]. For the same compound, the Potency [11] was inconclusive: 7.43 µM [cytotoxic, full curve], the Potency [7] was inconclusive: 7.43 µM [cytotoxic, full curve] and the Potency [8] was inconclusive: 6.62 µM [cytotoxic, full curve].
In the case of `O=C(O)c1ccc(CCCc2ccc(OCCc3ccc(F)cc3)cc2)o1`, the Potency [9] is reported as inconclusive: 18.6 µM [cytotoxic, partial curve] and the Potency [10] is reported as inconclusive: 28.2 µM [cytotoxic, single point].
For `CC(C)(C)C(=O)N1N=CC[C@H]1c1ccccc1`, the Potency [9] was inconclusive: 4.68 µM [cytotoxic, full curve, poor fit] and the Potency [10] was inconclusive: 35.5 µM [cytotoxic, single point].
In the case of `S=C(NCc1ccc2c(c1)OCO2)N1CCN(c2ncnc3c2oc2ccccc23)CC1`, the Potency [1] is reported as inconclusive: 42.9 µM [cytotoxic, partial curve], the Potency [2] is reported as inconclusive: 54 µM [cytotoxic, partial curve] and the Potency [3] is reported as active: 38.2 µM. The Potency [4] was inconclusive: 34 µM [cytotoxic, partial curve], the Potency [5] was inconclusive: 12.1 µM [cytotoxic, partial curve] and the Potency [6] was inconclusive: 6.05 µM [cytotoxic, partial curve]. For the same compound, the Potency [11] was inconclusive: 42.9 µM [cytotoxic, partial curve, poor fit], the Potency [8] was active: 27 µM and the Potency [10] was inconclusive: 5.62 µM [cytotoxic, partial curve].
For `CO[C@H]1C[C@@H]2CC[C@@H](C)[C@@](O)(O2)C(=O)C(=O)N2CCCC[C@@H]2C(=O)O[C@H]([C@H](C)C[C@@H]2CC[C@H](OC(=O)C(C)(CO)CO)[C@H](OC)C2)CC(=O)[C@H](C)C=C(C)[C@@H](O)[C@@H](OC)C(=O)[C@H](C)C[C@H](C)C=CC=CC=C1C`, the Potency [1] was inconclusive: 4.18 µM [cytotoxic, full curve], the Potency [2] was inconclusive: 9.35 µM [cytotoxic, partial curve] and the Potency [3] was inconclusive: 16.6 µM [cytotoxic, partial curve]. For the same compound, the Potency [4] was active: 6.62 µM, the Potency [5] was inconclusive: 14.8 µM [cytotoxic, partial curve] and the Potency [6] was inconclusive: 6.62 µM [cytotoxic, partial curve]. The Potency [11] was inconclusive: 0.526 µM [cytotoxic, full curve], the Potency [7] was inconclusive: 11.8 µM [cytotoxic, partial curve] and the Potency [8] was inconclusive: 20.9 µM [cytotoxic, partial curve].
